The full ranking holds about 33,000 sequences; the median of “E-score (-0.5 to 0.5)” is about -0.016, and the highest 2% start at about 0.3. The list shows a part of the results.
What follows are sequences tested against T1, Yer184c (UniProt P39961) (assay: PBM E-score (8-mer binding enrichment) (E-score (-0.5 to 0.5)); higher = stronger / more preferred TF binding). Conditions: protein concentration: 100 nM; construct: GST-full length.
T1 sequence: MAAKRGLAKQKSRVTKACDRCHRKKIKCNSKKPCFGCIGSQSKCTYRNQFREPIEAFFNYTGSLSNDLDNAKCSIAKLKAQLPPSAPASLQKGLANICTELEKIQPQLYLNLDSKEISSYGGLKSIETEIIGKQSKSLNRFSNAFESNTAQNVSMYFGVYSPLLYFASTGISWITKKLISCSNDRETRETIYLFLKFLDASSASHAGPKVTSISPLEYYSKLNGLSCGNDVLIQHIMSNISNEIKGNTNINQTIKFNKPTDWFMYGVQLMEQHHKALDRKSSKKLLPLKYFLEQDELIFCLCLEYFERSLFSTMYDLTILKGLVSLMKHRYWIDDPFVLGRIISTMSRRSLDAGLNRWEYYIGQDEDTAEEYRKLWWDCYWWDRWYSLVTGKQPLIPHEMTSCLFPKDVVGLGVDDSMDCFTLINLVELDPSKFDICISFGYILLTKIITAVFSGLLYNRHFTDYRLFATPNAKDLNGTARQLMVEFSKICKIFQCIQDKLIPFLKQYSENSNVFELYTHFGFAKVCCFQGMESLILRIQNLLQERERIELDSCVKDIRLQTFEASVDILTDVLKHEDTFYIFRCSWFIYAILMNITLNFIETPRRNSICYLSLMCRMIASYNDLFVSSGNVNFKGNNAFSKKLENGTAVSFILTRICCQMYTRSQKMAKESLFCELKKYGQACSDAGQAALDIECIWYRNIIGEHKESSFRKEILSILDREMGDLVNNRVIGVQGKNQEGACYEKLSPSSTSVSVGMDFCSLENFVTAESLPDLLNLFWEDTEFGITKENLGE
Summary of the method: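 Detection of bound protein used fluorescent anti-GST, with scans normalised by masliner. The proteins were GST-tagged yeast transcription factors applied at about 100-200 nM to universal all-10-mer Agilent arrays made double-stranded by primer extension. Each ungapped eight-base word, pooled with its reverse complement, was scored with an E-score from the Universal PBM Analysis Suite.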

Sequence	PBM E-score
TGCAGCAA	0.0453
CCGGGGGA	0.00494
AGACAGGA	0.129
GAGGCATC	-0.162
ATCGCTGC	-0.0188
ATGCAATG	-0.145
CAAGCTGA	0.131
CTTCCTTA	-0.0823
GATGTTGA	0.0352
CCCTGTGC	-0.228
GGGGTTTA	-0.216
ACCCTACT	-0.17
AAGGGGCA	-0.299
AAATGGGT	0.0714
ATTATGGA	0.122
GCACAACC	-0.0279
CTGATCTC	0.00463
CAAATCTC	0.0666
CAGTTGCC	-0.0212
CTAACATC	0.0267
ACAAGGCT	-0.268
TACGTCGA	-0.0468
CCACCGCG	0.0962
TACTCCGA	0.262
CCTGTCCA	-0.323

Reformatted: results already given
Sequence,PBM E-score
AAATGGGT,0.0714
ATTATGGA,0.122
GCACAACC,-0.0279
CTGATCTC,0.00463
CAAATCTC,0.0666

(listing goes on)

Sequence	PBM E-score
CCAGTGAG	-0.227
AATCGTCC	0.0346
CTCATTCA	-0.057
CATTATAC	0.0866
CCAGCCTC	-0.323
GCGTTGGA	-0.101
ATGAGCCC	-0.243
GAGCCTGC	-0.0847
AAACGGAC	-0.00077
CTTAAGAA	0.145
TAAAGCCA	0.12
AAGGCGCC	0.0286
CCAAGTCC	-0.22
TCATGTCA	-0.0541
CTGGGATC	-0.146
GCCCGGAA	0.359
ACGTCCTG	-0.295
CAGAATAG	0.0192
ACTACAAA	0.146
TTAGCTAA	0.0769
ACCACAAG	-0.0787
CGGTCCGC	0.231
ACGATCCG	0.266
ATTGCGTG	-0.0519
GGTCGAGA	-0.24

Sequence	PBM E-score
ATGTCGAG	-0.0552
TAATCGTA	0.0153
CCCAAAAA	-0.0971
TCCTGAGA	-0.11
AGAGGATC	-0.121
AAGTAATA	0.00482
CCAAGAAC	0.0263
AGTTCAAT	-0.186
GTCCACAA	-0.141
GCACACAC	-0.0423
ACCTAATG	-0.284
CCGCCTAC	-0.0578
CTTGCAGC	-0.0242
AACGTAAG	-0.122
GATTCTGA	0.103
ATCTTTAC	0.0213
CAATACTG	-0.0319
ATTAGATC	0.127
GCAAGCTA	0.034
CACCTACA	-0.206
AACTGACT	-0.0574
GCGTACAC	-0.178
ATCGGATG	0.236
ACCTACTC	-0.146
AGCCGGCC	0.333

Copied from the list.
Entry for AACTGACT under PBM E-score: -0.0574
Entry for CACCTACA under PBM E-score: -0.206

More records

Sequence	PBM E-score
AAGTCAGA	-0.0473
CACGGTCA	-0.0695
AAGCTTGA	-0.0898
GAAATATC	0.175
AGTATGTC	0.0841
GCCCAAAC	0.0356
TTGAAAAA	0.208
AAAGTCTT	0.0738
ACGACGAA	0.195
ACTCTACT	0.0946
CCCCCAGA	-0.406
AGAGAAGA	0.116
ATTGCGTC	-0.0563
CACCCAAC	-0.0756
CGTAATTC	0.065
AACTTATG	0.0543
CGCCAGTC	-0.16
ATAAGCTA	0.0794
CTTAACCC	-0.114
ACTTGCAG	-0.129
TCAACGAA	0.16
ATGGCCAG	-0.084
AGCGAAAA	0.0974
GTATGCCA	-0.258
ACTTTCCC	-0.101

Sequence	PBM E-score
CTTGTTTA	0.133
CAATCTTA	0.0301
AACGCGGT	0.0906
CCGTGATC	0.144
ACCTTGCA	-0.197
ACCAGCGG	-0.0642
CCTCAAGA	-0.0169
AGGTAACT	0.00177
AAAGAGAA	-0.065
CCCTTTCC	-0.11
ACCAACAA	0.181
AGCAGTTC	-0.0572
AAATGGAC	0.163
TCAGGTAA	-0.158
CGTTATAA	0.0757
ATCAGCCA	-0.0736
TACGGGGA	0.0473
AGGCCATC	-0.0339
TCGGATAA	0.379
AAAAGGGT	-0.0864
TCTTATAA	0.16
ATCGCCGA	0.365
AGTCCCCA	-0.371
CGCGTAAC	-0.0774
ATTAAAGC	0.138

Sequence	PBM E-score
CAGCGCTC	-0.0643
TCACTCCA	-0.0913
CGGTCAGA	0.102
CTTCGCGA	0.0769
ATATCGGA	0.277
CAGCCTGG	-0.231
TACCCGTA	-0.0504
CTCCTACC	-0.0959
AGACTGTG	-0.185
ATATCCGC	0.178
AGTTGTTC	0.0761
CAAAAAGG	-0.0941
CTAATGTC	-0.0899
GTACGGAA	0.28
CCTTCCAA	-0.162
GTATAGCA	0.168
CATAGGCG	-0.145
TACACCTA	-0.105
GGGCAAAA	0.102
ACGGGCAT	-0.092
GAACGCTA	-0.109
GCAGGGAC	-0.254
GCTAGAGC	-0.0414
CACAGTAC	-0.0954
CTCCATTC	-0.134

A different layout for part of the listing above:
Sequence | PBM E-score
ATATCGGA | 0.277
GGGCAAAA | 0.102

(cont.)

Sequence	PBM E-score
CTACGGTC	-0.109
AAATCATT	0.142
AGAATCCC	0.07
CTCGGGGC	-0.0333
CCCTTTTC	-0.0872
CAGTCCGG	0.143
CACAACAC	-0.0353
ATTGCTCC	0.00744
CGTTATCC	0.0893
CTCGGATC	0.241
CAACTCTG	-0.103
AACAGACC	0.11
CCTGACCG	-0.0569
CATTCGCC	-0.01
AAAGATTT	0.108
CCGGTGCC	0.163
ACCTAGCC	-0.0261
AGGCTGTG	-0.156
AACCCGGA	0.266
ATGCCATC	0.0964
ACGCGGTA	-0.105
GTTCAGTA	0.0833

Source: the supplement of paper PMC3334620
